Assay results reported in PMC6504784.
Results are given in words; binding and its absence hold for the method and conditions named. Binding seen in cells or lysates may run through a third protein. Some binding calls cover weakened binding; strength is not graded here.

Chains of the proteins cited; added tags and fusions are not shown.
UniProt P42866: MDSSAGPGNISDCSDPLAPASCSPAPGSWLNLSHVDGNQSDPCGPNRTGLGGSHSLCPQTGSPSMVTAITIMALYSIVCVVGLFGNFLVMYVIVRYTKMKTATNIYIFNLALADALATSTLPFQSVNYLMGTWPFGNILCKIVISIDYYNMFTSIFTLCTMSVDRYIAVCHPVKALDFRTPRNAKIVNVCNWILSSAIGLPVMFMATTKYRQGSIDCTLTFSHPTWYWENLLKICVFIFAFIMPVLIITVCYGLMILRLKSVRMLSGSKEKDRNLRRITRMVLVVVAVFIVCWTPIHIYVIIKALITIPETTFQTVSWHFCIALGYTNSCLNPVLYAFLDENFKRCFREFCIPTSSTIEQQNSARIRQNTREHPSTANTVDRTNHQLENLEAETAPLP
UniProt P25098: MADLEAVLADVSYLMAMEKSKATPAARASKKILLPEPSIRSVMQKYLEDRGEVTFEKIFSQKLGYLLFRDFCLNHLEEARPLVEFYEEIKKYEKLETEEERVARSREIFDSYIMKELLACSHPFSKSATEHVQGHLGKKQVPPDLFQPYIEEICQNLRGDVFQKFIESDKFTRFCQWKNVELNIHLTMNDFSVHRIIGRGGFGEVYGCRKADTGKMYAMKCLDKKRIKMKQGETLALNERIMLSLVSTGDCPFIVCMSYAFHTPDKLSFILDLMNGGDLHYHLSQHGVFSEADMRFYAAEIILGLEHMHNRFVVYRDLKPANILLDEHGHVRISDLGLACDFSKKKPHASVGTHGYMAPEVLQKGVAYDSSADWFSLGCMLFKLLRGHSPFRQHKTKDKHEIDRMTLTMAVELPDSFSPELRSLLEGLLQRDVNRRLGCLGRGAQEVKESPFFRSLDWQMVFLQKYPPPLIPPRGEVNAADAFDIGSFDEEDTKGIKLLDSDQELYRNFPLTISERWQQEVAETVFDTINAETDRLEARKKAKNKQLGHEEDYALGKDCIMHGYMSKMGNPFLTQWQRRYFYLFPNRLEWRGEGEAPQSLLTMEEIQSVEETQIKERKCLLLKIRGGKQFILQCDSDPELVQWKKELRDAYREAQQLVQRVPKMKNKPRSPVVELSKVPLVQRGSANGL

Target: FLAG-MOP-NLuc (mouse (printed as mMOP)) (UniProt P42866)
Assay: FRET or BRET; HEK293 transiently transfected with 1 μg FLAG-MOP-NLuc and 4 μg GRK2-Venus; live cells in HBSS, 37°C, 5 μM furimazine; 10 μM DAMGO or vehicle added to control or Cmpd101-pretreated (30 μM, 30 min) cells; BRET ratio of vehicle-treated cells subtracted

For “GRK2-Venus (from UniProt P25098 1-689) (enzyme)”, the binding was “binds”.
